According to patent publication US20200085918A1, “COMPOSITIONS AND METHODS FOR TREATMENT OF UREMIC CARDIOMYOPATHY” (priority 2016, published 2020):

Test system: Sham surgery C57BL/6 mice
Experiment: Transthoracic echocardiography, sham surgery mice (CoPP and pNaKtide study)
Type: in vivo, mouse
Settings: Sham + CoPP (5 mg/kg BW ip), n = 12, mean ± SE

C=CC1=C(C)c2cc3[n-]c(cc4nc(cc5[n-]c(cc1n2)c(C)c5CCC(=O)[O-])C(CCC(=O)[O-])=C4C)c(C)c3C=C.[Co+2].[H+].[H+] [CoPP, cobalt protoporphyrin]
AWT, anterior wall thickness: 0.67 ± 0.02 mm | BW, body weight: 28.4 ± 0.6 g | CO, cardiac output: 11.0 ± 0.6 mL/min | EDA, end diastolic area: 28.4 ± 0.5 mm^2 | EDD, end diastolic dimension: 4.5 ± 0.04 mm | EF, ejection fraction: 57.0 ± 2.2% | ESA, end systolic area: 18.3 ± 0.5 mm^2 | ESD, end systolic dimension: 3.4 ± 0.1 mm | FS, fractional shortening: 24.7 ± 1.3% | LVMI, left ventricle mass index: 3.7 ± 0.1 | MPI, myocardial performance index: 0.40 ± 0.01 | PWT, posterior wall thickness: 0.60 ± 0.01 mm | PaD, pulmonary artery dimension: 1.0 ± 0.02 mm | PaVTI, pulmonary artery Velocity time integral: 30.6 ± 1.0 | RWT, relative wall thickness: 0.28 ± 0.01
